# Single values of this set are uncertain.
# B1: Rpb7; numbered along this chain (parent)
# chain: MFFIKDLSLNITLHPSFFGPRMKQYLKTKLLEEVEGSCTGKFGYILCVLDYDNIDIQRGRILPTDGSAEFNVKYRAVVFKPFKGEVVDGTVVSCSQHGFEVQVGPMKVFVTKHLMPQDLTFNAGSNPPSYQSSEDVITIKSRIRVKIEGCISQVSSIHAIGSIKEDYLGAI
# Assays:
# [1] = variants of: B1; experiment: log2 fold change of mutant abundance, UV-irradiated vs unirradiated; higher = more UV resistant (enriched after UV); conditions: with Saccharomyces cerevisiae rad7Δ rad26Δ; UV dose (J/m2): 10; genetic background: rad7Δ rad26Δ rpb7Δ + plasmid RPB7 library; outgrowth: 10 cell divisions
# [2] = variants of: B1; experiment: NOISeq theta enrichment statistic, UV-irradiated vs unirradiated (dimensionless); higher = more UV resistant (enriched after UV); conditions: with Saccharomyces cerevisiae rad7Δ rad26Δ; UV dose (J/m2): 10; genetic background: rad7Δ rad26Δ rpb7Δ + plasmid RPB7 library; outgrowth: 10 cell divisions
Variant,log2 fold change of mutant abundance [1],NOISeq theta enrichment statistic [2]
MFFIKDLSLNITLHPSFFGPRMKQYLKTKLLEEVEGSCTGKFGYICCVLDYDNIDIQRGRILPTDGSAEFNVKYRAVVFKPFKGEVVDGTVVSCSQHGFEVQVGPMKVFVTKHLMPQDLTFNAGSNPPSYQSSEDVITIKSRIRVKIEGCISQVSSIHAIGSIKEDYLGAI [L46C],-0.0815,-0.0368
MFFIKDLSLNITLHPSFFGPRMKQYLKTKLLEEVEGSCTGKFGYIFCVLDYDNIDIQRGRILPTDGSAEFNVKYRAVVFKPFKGEVVDGTVVSCSQHGFEVQVGPMKVFVTKHLMPQDLTFNAGSNPPSYQSSEDVITIKSRIRVKIEGCISQVSSIHAIGSIKEDYLGAI [L46F],0.0297,0.0932
MFFIKDLSLNITLHPSFFGPRMKQYLKTKLLEEVEGSCTGKFGYIHCVLDYDNIDIQRGRILPTDGSAEFNVKYRAVVFKPFKGEVVDGTVVSCSQHGFEVQVGPMKVFVTKHLMPQDLTFNAGSNPPSYQSSEDVITIKSRIRVKIEGCISQVSSIHAIGSIKEDYLGAI [L46H],-0.122,-0.351
MFFIKDLSLNITLHPSFFGPRMKQYLKTKLLEEVEGSCTGKFGYIICVLDYDNIDIQRGRILPTDGSAEFNVKYRAVVFKPFKGEVVDGTVVSCSQHGFEVQVGPMKVFVTKHLMPQDLTFNAGSNPPSYQSSEDVITIKSRIRVKIEGCISQVSSIHAIGSIKEDYLGAI [L46I],0.0777,0.22
MFFIKDLSLNITLHPSFFGPRMKQYLKTKLLEEVEGSCTGKFGYIPCVLDYDNIDIQRGRILPTDGSAEFNVKYRAVVFKPFKGEVVDGTVVSCSQHGFEVQVGPMKVFVTKHLMPQDLTFNAGSNPPSYQSSEDVITIKSRIRVKIEGCISQVSSIHAIGSIKEDYLGAI [L46P],0.148,0.233
MFFIKDLSLNITLHPSFFGPRMKQYLKTKLLEEVEGSCTGKFGYIQCVLDYDNIDIQRGRILPTDGSAEFNVKYRAVVFKPFKGEVVDGTVVSCSQHGFEVQVGPMKVFVTKHLMPQDLTFNAGSNPPSYQSSEDVITIKSRIRVKIEGCISQVSSIHAIGSIKEDYLGAI [L46Q],0.656,0.368
MFFIKDLSLNITLHPSFFGPRMKQYLKTKLLEEVEGSCTGKFGYIRCVLDYDNIDIQRGRILPTDGSAEFNVKYRAVVFKPFKGEVVDGTVVSCSQHGFEVQVGPMKVFVTKHLMPQDLTFNAGSNPPSYQSSEDVITIKSRIRVKIEGCISQVSSIHAIGSIKEDYLGAI [L46R],-0.0964,-0.107
MFFIKDLSLNITLHPSFFGPRMKQYLKTKLLEEVEGSCTGKFGYISCVLDYDNIDIQRGRILPTDGSAEFNVKYRAVVFKPFKGEVVDGTVVSCSQHGFEVQVGPMKVFVTKHLMPQDLTFNAGSNPPSYQSSEDVITIKSRIRVKIEGCISQVSSIHAIGSIKEDYLGAI [L46S],0.217,0.136
MFFIKDLSLNITLHPSFFGPRMKQYLKTKLLEEVEGSCTGKFGYIVCVLDYDNIDIQRGRILPTDGSAEFNVKYRAVVFKPFKGEVVDGTVVSCSQHGFEVQVGPMKVFVTKHLMPQDLTFNAGSNPPSYQSSEDVITIKSRIRVKIEGCISQVSSIHAIGSIKEDYLGAI [L46V],0.064,0.0772
MFFIKDLSLNITLHPSFFGPRMKQYLKTKLLEEVEGSCTGKFGYIYCVLDYDNIDIQRGRILPTDGSAEFNVKYRAVVFKPFKGEVVDGTVVSCSQHGFEVQVGPMKVFVTKHLMPQDLTFNAGSNPPSYQSSEDVITIKSRIRVKIEGCISQVSSIHAIGSIKEDYLGAI [L46Y],0.0414,0.0261
MFFIKDLSLNITLHPSFFGPRMKQYLKTKLLEEVEGSCTGKFGYILFVLDYDNIDIQRGRILPTDGSAEFNVKYRAVVFKPFKGEVVDGTVVSCSQHGFEVQVGPMKVFVTKHLMPQDLTFNAGSNPPSYQSSEDVITIKSRIRVKIEGCISQVSSIHAIGSIKEDYLGAI [C47F],-0.12,-0.331
MFFIKDLSLNITLHPSFFGPRMKQYLKTKLLEEVEGSCTGKFGYILGVLDYDNIDIQRGRILPTDGSAEFNVKYRAVVFKPFKGEVVDGTVVSCSQHGFEVQVGPMKVFVTKHLMPQDLTFNAGSNPPSYQSSEDVITIKSRIRVKIEGCISQVSSIHAIGSIKEDYLGAI [C47G],-0.243,-0.267
MFFIKDLSLNITLHPSFFGPRMKQYLKTKLLEEVEGSCTGKFGYILHVLDYDNIDIQRGRILPTDGSAEFNVKYRAVVFKPFKGEVVDGTVVSCSQHGFEVQVGPMKVFVTKHLMPQDLTFNAGSNPPSYQSSEDVITIKSRIRVKIEGCISQVSSIHAIGSIKEDYLGAI [C47H],0.81,0.429
MFFIKDLSLNITLHPSFFGPRMKQYLKTKLLEEVEGSCTGKFGYILIVLDYDNIDIQRGRILPTDGSAEFNVKYRAVVFKPFKGEVVDGTVVSCSQHGFEVQVGPMKVFVTKHLMPQDLTFNAGSNPPSYQSSEDVITIKSRIRVKIEGCISQVSSIHAIGSIKEDYLGAI [C47I],-0.191,-0.167
MFFIKDLSLNITLHPSFFGPRMKQYLKTKLLEEVEGSCTGKFGYILLVLDYDNIDIQRGRILPTDGSAEFNVKYRAVVFKPFKGEVVDGTVVSCSQHGFEVQVGPMKVFVTKHLMPQDLTFNAGSNPPSYQSSEDVITIKSRIRVKIEGCISQVSSIHAIGSIKEDYLGAI [C47L],-0.0474,-0.0392
MFFIKDLSLNITLHPSFFGPRMKQYLKTKLLEEVEGSCTGKFGYILRVLDYDNIDIQRGRILPTDGSAEFNVKYRAVVFKPFKGEVVDGTVVSCSQHGFEVQVGPMKVFVTKHLMPQDLTFNAGSNPPSYQSSEDVITIKSRIRVKIEGCISQVSSIHAIGSIKEDYLGAI [C47R],-0.118,-0.333
MFFIKDLSLNITLHPSFFGPRMKQYLKTKLLEEVEGSCTGKFGYILSVLDYDNIDIQRGRILPTDGSAEFNVKYRAVVFKPFKGEVVDGTVVSCSQHGFEVQVGPMKVFVTKHLMPQDLTFNAGSNPPSYQSSEDVITIKSRIRVKIEGCISQVSSIHAIGSIKEDYLGAI [C47S],0.114,0.458

# Reformatted: entries from further up.
Variant	log2 fold change of mutant abundance [1]	NOISeq theta enrichment statistic [2]
MFFIKDLSLNITLHPSFFGPRMKQYLKTKLLEEVEGSCTGKFGYILIVLDYDNIDIQRGRILPTDGSAEFNVKYRAVVFKPFKGEVVDGTVVSCSQHGFEVQVGPMKVFVTKHLMPQDLTFNAGSNPPSYQSSEDVITIKSRIRVKIEGCISQVSSIHAIGSIKEDYLGAI [C47I]	-0.191	-0.167
MFFIKDLSLNITLHPSFFGPRMKQYLKTKLLEEVEGSCTGKFGYILLVLDYDNIDIQRGRILPTDGSAEFNVKYRAVVFKPFKGEVVDGTVVSCSQHGFEVQVGPMKVFVTKHLMPQDLTFNAGSNPPSYQSSEDVITIKSRIRVKIEGCISQVSSIHAIGSIKEDYLGAI [C47L]	-0.0474	-0.0392
